# PubChem BioAssay AID2685 (National Center for Advancing Translational Sciences (NCATS), 2010)
# Some of the results follow. These are further read-outs of the screen, such as a control signal, another cell line or another target. No call is given for them. Most of these compounds were active or inconclusive in the main read-out, so they are no random draw. The note in brackets gives the kind of curve behind each potency; many fits are weak.
# Assay: qHTS Assay for Lipid Storage Modulators in Drosophila S3 Cells;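 for cell number change: cells counted by Cell Tracker Red CMTPX staining in the red channel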
# Details: BODIPY lipid droplet fluorescence, 18-24 h; for cell number change: measured here: cell count max response, cells fed with added oleic acid
# Procedure, shortened: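 Drosophila S3 cells got compounds at several concentrations plus oleic acid (400 uM solution). Laser-scanning cytometry with 488 nm excitation read lipid droplets at 500-530 nm and cells at 575-640 nm. Percent activity was relative to 20 uM Triacsin C.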
# [1] = measured here: lipid fluorescence (Fed channel) AC50, cells fed with added oleic acid
# [2] = measured here: cell number channel AC50, cells fed with added oleic acid
Structure (SMILES),cell number change,AC50 [1],AC50 [2]
Cc1cc(C)n(C(=O)c2cccc(S(=O)(=O)N3CCCC3)c2)n1,12.5%,"0.116 µM [falling, full curve, poor fit]",–
N#C/C(=C/c1ccc(-c2cc(C(=O)O)cc(C(=O)O)c2)o1)c1nc2ccccc2s1,–,"0.00461 µM [rising, full curve, poor fit]",–
Cc1ccc(OCCn2cc(/C=C(\C#N)C(=O)NCC3CCCO3)c3ccccc32)cc1C (stereo not given),2.33%,–,–
COc1cc(CNc2ncc(-c3ccc(Br)cc3)n2C)cc(OC)c1OC,-31%,"29.1 µM [falling, single point]","29.1 µM [falling, partial curve, poor fit]"
COc1ccc2c(c1)c(/C=N/Nc1ccc(C(=O)O)cc1)c(C)n2C,75.3%,"29.1 µM [rising, single point]","25.9 µM [rising, single point]"
CCN(CC)C(=O)C1CCCN(Cc2cccc(F)c2)C1 (stereo not given),11%,–,–
Cn1c(/C=C/c2ccc(Cl)cc2)c([N+](=O)[O-])c(=O)n(C)c1=O,-9.91%,"5.17 µM [falling, full curve]",–
O=C(Oc1ccc(F)c(F)c1)c1ccc2c(=O)n3c(nc2c1)CCC3,–,"32.6 µM [falling, single point]",–
O=C(O)c1ccc(N/N=C/c2ccc(F)c(F)c2)cc1,-31%,–,"29.1 µM [falling, single point]"
FC(F)(F)c1cc(-c2cccs2)nc(-n2cc(Cl)cn2)n1,134%,"0.517 µM [rising, partial curve, poor fit]","0.731 µM [rising, single point]"
CC(C)(C)NC(=O)COC(=O)c1ccccc1NC(=O)c1ccco1,–,"0.116 µM [rising, full curve]","0.184 µM [rising, full curve]"
Cc1ccc(C(=O)NCCNC(=O)c2cccnc2)cc1,5.26%,"6.31 µM [falling, partial curve, poor fit]",–
O=C(CCC(NC(=O)OCc1ccccc1)C(=O)O)OCc1ccccc1 (stereo not given),16.3%,–,–
CC12CC(c3ccccc3O1)N(C(=O)c1ccco1)C(=S)N2c1ccccc1 (stereo not given),21.9%,"23.1 µM [falling, partial curve]","0.103 µM [rising, full curve, poor fit]"
O=C(Nc1ccc(CN2CCOCC2)cc1)c1ccc(Br)o1,15.2%,–,–
Cn1c(CC(=O)NNC(=O)c2ccc(F)cc2F)nc2ccccc21,-18.7%,"2.31 µM [rising, partial curve, poor fit]",–
Cc1ccc(-n2nnc3c(SCC(=O)NCc4ccco4)ncnc32)cc1,-42%,"18.4 µM [falling, partial curve]","18.4 µM [falling, partial curve]"
O=C(/C=C/c1ccco1)NCC(=O)N/N=C/c1ccc(Cl)cc1,-10.8%,–,–
COc1cccc(C2NC(=O)NC(C)=C2C(=O)Nc2cccc(C)c2C)c1 (stereo not given),1.62%,"0.0731 µM [rising, single point]",–

# Another view of 3 compounds above:
Structure (SMILES) | cell number change | AC50 [1] | AC50 [2]
Cc1ccc(-n2nnc3c(SCC(=O)NCc4ccco4)ncnc32)cc1 | -42% | 18.4 µM [falling, partial curve] | 18.4 µM [falling, partial curve]
O=C(/C=C/c1ccco1)NCC(=O)N/N=C/c1ccc(Cl)cc1 | -10.8% | – | –
COc1cccc(C2NC(=O)NC(C)=C2C(=O)Nc2cccc(C)c2C)c1 (stereo not given) | 1.62% | 0.0731 µM [rising, single point] | –

# The list goes on.

Structure (SMILES),cell number change,AC50 [1],AC50 [2]
CCOC(=O)N1CCN(C(=O)c2ccc3c(=O)n(-c4ccc(F)cc4)c(=S)[nH]c3c2)CC1,66.1%,"29.1 µM [rising, single point]","18.4 µM [rising, partial curve]"
O=C(NCc1ccccc1Cl)C1CCN(S(=O)(=O)c2cccs2)CC1,76.2%,"4.61 µM [rising, partial curve]","1.64 µM [rising, full curve]"
O=C(CN1CCCCCC1)Nc1ccc(F)c(F)c1,19.2%,"0.0231 µM [rising, full curve, poor fit]",–
Cc1cccc(OCc2nc(-c3nonc3N)no2)c1C,-41.5%,"0.517 µM [rising, full curve, poor fit]","18.4 µM [falling, partial curve]"
CCOC(=O)Cc1cc(=O)n2[nH]c(C)c(-c3ccc(OC)cc3)c2n1,162%,–,–
CC(C)(C)NC(=O)Cn1nnc(-c2cccs2)n1,-79.2%,–,"32.6 µM [falling, single point]"
CN1C(=O)C(=O)N(CC(=O)Nc2ccccc2OC(F)F)C1=O,4.66%,"0.731 µM [falling, single point]",–
O=C(COc1ccc([N+](=O)[O-])cc1)NCc1cccnc1,10.1%,"11.6 µM [rising, partial curve]",–
COc1ccc(-c2csc(NC(=O)C3CCCO3)n2)cc1 (stereo not given),12%,"3.66 µM [rising, partial curve]",–
CCC1CCCCN1CCCNC(=O)CSc1nc2nc(C)c(Cc3ccccc3Cl)c(C)n2n1 (stereo not given),–,–,"0.058 µM [falling, full curve, poor fit]"
Cc1ccn2c(NC3CCCCC3)c(-c3cccc(-c4cccc(Cl)c4)c3)nc2c1,-62.6%,"5.8 µM [falling, single point]","14.6 µM [falling, partial curve]"
O=C(O)c1ccc(NC(=O)c2cn(-c3ccccc3)nc2-c2ccc(F)cc2)cc1,14.5%,–,"6.51 µM [falling, single point]"
CC(C)CN1C(=O)c2ccc(NC(=O)c3ccco3)cc2C1=O,0.955%,"29.1 µM [falling, single point]",–
CC(=O)Nc1ccc2c(c1)N(C(=O)CN(C)C)c1ccccc1CC2,-52.6%,"13 µM [falling, partial curve]","10.3 µM [falling, partial curve]"
CC1CCCCC1NC(=O)c1ccc(N2CCCC2=O)cc1 (stereo not given),101%,–,"18.4 µM [rising, single point]"
COc1ccc(N2CCN(C(=O)CNC(=O)c3cccs3)CC2)cc1,4.42%,–,–
Cc1nn(CC(=O)NCCCc2ccccc2)c(=O)c2cc3occc3n12,-14.5%,–,–
O=C(Nc1cccc(C(=O)Nc2ccc(F)cc2F)c1)c1ccccc1,9.53%,"0.291 µM [rising, partial curve, poor fit]",–
Cc1ccc(S(=O)(=O)N2CCOC2CNC(=O)C(=O)NCCc2ccccc2)cc1 (stereo not given),18%,"1.64 µM [rising, full curve]",–
